Experimental data from the supplement of paper PMC10849652.
The list shows a part of the results.

Sequences of proteins named here, by UniProt entry; tags and fusion partners are left off. A change or cut given only in a name is not applied to a line headed by its entry.
UniProt Q6ICL3: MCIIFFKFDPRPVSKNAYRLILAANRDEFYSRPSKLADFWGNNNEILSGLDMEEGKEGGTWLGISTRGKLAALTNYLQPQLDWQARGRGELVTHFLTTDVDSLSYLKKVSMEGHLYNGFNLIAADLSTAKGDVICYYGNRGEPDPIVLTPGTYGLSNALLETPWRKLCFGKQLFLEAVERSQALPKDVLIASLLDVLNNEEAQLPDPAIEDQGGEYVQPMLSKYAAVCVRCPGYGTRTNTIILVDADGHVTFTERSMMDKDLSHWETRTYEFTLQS
UniProt Q9H2K8: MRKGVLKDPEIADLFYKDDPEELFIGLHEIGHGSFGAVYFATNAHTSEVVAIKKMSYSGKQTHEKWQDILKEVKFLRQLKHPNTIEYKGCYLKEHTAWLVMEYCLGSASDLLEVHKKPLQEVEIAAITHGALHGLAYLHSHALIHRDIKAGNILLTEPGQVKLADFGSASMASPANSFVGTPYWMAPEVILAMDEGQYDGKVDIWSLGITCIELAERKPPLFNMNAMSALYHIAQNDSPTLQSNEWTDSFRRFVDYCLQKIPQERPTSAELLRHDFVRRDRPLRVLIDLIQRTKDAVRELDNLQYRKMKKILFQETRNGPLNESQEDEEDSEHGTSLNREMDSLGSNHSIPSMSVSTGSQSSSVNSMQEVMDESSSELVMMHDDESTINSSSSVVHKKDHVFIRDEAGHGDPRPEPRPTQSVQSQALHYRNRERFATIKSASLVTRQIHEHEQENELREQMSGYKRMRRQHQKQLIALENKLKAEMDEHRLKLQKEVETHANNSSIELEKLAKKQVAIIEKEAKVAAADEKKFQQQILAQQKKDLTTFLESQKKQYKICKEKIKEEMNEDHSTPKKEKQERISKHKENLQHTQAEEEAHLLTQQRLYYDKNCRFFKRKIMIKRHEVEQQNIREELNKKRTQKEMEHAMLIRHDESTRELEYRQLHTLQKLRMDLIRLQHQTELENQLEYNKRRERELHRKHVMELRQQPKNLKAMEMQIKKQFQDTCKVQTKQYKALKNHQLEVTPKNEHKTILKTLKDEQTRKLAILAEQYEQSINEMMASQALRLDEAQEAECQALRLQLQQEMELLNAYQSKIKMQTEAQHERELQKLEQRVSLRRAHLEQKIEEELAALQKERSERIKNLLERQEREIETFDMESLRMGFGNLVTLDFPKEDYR
UniProt O95359: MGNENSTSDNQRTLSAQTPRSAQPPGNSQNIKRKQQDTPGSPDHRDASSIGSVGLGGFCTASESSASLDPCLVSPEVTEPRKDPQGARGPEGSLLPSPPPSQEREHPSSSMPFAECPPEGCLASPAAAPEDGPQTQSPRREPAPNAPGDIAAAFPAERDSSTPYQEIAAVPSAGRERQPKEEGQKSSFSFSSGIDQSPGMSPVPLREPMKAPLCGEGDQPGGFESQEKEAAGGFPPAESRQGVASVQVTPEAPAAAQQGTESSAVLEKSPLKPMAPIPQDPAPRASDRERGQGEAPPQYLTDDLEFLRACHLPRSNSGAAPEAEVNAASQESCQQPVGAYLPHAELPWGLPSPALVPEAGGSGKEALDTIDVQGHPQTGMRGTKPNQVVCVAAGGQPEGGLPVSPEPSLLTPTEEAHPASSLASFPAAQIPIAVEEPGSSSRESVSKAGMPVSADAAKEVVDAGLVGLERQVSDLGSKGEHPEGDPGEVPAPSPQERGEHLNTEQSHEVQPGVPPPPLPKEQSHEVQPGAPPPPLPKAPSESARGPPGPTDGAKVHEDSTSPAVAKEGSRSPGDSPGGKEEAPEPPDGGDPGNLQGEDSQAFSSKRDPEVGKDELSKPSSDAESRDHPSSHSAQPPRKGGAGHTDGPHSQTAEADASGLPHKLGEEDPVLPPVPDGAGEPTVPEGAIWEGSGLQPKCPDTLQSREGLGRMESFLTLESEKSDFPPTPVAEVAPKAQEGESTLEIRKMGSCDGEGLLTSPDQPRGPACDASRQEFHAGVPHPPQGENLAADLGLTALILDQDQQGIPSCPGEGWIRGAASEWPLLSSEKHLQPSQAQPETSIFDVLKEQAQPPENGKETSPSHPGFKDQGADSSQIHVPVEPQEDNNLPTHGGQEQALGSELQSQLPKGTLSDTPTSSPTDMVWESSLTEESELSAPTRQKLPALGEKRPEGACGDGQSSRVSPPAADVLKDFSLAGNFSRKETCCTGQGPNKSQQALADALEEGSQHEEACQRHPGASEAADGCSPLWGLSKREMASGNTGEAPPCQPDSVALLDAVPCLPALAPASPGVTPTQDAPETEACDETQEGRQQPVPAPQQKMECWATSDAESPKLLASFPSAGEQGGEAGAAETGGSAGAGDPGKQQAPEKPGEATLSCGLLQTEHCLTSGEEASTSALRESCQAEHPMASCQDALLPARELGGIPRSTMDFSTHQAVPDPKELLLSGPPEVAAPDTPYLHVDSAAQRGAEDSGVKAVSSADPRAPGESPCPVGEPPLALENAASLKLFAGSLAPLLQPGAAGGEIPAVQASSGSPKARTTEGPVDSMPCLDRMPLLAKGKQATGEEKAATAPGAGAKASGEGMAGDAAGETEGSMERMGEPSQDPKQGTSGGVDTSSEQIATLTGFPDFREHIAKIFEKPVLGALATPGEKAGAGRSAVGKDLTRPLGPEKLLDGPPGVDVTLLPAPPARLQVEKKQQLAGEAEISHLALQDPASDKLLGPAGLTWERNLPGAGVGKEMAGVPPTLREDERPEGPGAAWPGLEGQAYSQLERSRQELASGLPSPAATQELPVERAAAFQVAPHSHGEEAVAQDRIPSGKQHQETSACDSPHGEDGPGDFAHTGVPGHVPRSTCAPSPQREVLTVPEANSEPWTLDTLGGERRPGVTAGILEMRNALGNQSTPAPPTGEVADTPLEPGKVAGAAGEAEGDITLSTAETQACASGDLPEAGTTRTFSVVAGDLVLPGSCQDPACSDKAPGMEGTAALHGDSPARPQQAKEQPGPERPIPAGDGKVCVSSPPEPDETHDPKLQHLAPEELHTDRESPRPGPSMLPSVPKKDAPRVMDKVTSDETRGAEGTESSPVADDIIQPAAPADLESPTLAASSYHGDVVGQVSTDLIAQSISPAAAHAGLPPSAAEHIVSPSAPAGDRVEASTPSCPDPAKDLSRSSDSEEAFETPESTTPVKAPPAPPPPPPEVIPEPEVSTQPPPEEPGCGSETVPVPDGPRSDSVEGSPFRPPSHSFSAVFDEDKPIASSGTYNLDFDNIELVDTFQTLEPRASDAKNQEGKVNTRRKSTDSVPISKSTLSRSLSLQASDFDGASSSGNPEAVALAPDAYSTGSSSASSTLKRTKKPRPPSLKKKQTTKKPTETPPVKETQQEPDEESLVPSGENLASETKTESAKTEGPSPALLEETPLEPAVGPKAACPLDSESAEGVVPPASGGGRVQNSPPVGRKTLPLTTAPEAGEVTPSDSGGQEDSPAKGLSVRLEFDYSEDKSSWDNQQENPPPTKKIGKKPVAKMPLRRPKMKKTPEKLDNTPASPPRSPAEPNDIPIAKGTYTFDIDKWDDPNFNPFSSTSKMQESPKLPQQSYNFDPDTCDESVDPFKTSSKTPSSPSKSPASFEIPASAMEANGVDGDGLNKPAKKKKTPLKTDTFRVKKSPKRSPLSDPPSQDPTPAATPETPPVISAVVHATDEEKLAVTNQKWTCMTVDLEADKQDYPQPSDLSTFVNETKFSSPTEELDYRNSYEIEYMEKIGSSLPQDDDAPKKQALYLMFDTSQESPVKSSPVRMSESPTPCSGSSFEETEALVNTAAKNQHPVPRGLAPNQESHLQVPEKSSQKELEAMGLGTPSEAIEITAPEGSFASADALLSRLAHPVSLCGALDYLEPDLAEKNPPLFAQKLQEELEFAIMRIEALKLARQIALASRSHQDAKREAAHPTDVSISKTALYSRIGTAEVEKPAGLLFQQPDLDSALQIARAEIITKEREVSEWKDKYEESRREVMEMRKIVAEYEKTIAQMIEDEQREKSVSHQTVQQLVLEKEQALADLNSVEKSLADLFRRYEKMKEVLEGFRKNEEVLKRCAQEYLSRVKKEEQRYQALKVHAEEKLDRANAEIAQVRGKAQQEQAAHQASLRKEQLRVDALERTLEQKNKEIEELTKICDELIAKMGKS
UniProt O00186: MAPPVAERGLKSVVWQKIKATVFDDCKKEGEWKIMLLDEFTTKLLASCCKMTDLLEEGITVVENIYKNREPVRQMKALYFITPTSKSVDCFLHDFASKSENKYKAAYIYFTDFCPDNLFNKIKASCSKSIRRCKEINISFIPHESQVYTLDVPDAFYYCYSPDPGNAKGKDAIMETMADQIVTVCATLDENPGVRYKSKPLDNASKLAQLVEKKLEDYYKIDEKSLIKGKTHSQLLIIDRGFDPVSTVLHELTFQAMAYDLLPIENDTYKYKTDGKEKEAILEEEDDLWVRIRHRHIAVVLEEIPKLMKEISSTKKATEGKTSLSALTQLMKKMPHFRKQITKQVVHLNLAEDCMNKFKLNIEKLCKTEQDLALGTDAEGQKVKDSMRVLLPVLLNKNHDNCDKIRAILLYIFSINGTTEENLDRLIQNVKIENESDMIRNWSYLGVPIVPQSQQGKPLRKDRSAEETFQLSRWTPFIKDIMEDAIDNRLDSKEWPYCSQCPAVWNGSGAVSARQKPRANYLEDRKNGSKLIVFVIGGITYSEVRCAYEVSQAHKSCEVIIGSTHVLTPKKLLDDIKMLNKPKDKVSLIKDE
UniProt Q6P1X5, whole entry, looked up: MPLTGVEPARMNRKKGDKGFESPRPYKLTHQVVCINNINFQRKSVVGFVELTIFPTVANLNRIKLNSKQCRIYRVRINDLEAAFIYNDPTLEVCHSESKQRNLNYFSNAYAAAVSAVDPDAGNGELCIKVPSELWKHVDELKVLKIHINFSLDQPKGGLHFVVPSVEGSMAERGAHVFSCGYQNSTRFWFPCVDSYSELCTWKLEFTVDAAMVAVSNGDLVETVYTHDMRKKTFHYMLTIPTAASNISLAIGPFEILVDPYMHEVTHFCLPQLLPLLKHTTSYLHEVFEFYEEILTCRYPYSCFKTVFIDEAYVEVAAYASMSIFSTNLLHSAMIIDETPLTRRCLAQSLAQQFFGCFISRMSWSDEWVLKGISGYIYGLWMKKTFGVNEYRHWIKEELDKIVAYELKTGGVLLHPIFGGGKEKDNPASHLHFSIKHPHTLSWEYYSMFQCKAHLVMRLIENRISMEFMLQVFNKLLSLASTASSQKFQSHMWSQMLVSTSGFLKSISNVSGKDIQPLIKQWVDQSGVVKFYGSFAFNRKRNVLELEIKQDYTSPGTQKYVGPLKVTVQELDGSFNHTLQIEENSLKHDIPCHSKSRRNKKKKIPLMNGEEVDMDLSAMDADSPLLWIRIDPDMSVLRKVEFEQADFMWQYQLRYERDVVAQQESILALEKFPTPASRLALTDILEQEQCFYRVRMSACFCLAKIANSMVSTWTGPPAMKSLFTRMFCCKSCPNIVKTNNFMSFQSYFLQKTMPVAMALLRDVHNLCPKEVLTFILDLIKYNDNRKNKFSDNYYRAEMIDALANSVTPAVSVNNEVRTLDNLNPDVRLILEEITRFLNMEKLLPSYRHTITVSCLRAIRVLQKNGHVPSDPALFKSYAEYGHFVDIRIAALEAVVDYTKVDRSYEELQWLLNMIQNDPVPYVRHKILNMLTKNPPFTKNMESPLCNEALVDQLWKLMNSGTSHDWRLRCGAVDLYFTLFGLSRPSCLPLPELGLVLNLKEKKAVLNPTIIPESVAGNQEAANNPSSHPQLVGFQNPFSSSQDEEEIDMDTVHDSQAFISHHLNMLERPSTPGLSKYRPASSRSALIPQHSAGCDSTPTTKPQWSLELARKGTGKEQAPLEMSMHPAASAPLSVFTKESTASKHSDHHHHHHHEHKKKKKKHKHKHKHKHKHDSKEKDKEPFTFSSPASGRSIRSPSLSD
UniProt P61956, whole entry, looked up: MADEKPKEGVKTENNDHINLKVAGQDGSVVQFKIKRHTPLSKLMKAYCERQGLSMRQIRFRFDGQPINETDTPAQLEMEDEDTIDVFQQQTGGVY
UniProt Q96BW9: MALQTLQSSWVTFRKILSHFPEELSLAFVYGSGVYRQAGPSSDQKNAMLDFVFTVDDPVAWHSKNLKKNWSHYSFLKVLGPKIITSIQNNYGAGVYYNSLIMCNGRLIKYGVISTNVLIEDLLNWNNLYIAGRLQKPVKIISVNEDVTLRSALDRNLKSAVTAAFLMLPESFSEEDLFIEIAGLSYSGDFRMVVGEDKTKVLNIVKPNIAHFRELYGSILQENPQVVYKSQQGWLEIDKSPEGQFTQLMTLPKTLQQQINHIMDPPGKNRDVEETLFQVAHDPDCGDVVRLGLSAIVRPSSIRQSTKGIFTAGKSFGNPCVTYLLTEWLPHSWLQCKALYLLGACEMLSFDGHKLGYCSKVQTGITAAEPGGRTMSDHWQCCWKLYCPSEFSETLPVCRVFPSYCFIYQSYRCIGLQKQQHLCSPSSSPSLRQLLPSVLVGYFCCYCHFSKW

Columns and labels:
Experiment in all cases: log2 fold change, soluble protein after heating vs DMSO (PISA); higher = thermal stabilisation; K562 cells, 10 uM, 30 min; active = over 0.2 and 3.5 SD of the protein, either way, in both replicates (recomputed)
[1] = compound: NC(=O)Nc1cc(-c2cccc(F)c2)sc1C(=O)N[C@H]1CCCNC1
In short: (§1)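 Soluble protein was defined as the supernatant after 21,000xg for 90 min. It came from K562 cells at 2×10^6 cells/mL given 10 μM compound for 30 min, heated in aliquots for 3 min across 48°C-58°C, pooled, and extracted in PBS with 0.5% NP-40 at 4°C, and was quantified by TMTpro 16plex LC-MS/MS with equalised channel sums. Thermal stability against control samples, from duplicates, is reported as log2 fold change.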

[2] = compound: NC(=O)c1cnc(N[C@@H]2CCCC[C@@H]2N)nc1Nc1cccc(-n2nccn2)c1
In short: as §1

[3] = compound: NC1(c2ccc(-c3nc4ccn5c(=O)[nH]nc5c4cc3-c3ccccc3)cc2)CCC1
In short: as §1

[4] = compound: NCC(=O)Nc1ccc(-n2nc(C(F)(F)F)cc2-c2ccc3c(ccc4ccccc43)c2)cc1
In short: as §1

entinostat = compound: Nc1ccccc1NC(=O)c1ccc(CNC(=O)OCc2cccnc2)cc1 [entinostat]
In short: as §1

vorinostat = compound: O=C(CCCCCCC(=O)Nc1ccccc1)NO [vorinostat]
In short: as §1

citarinostat = compound: O=C(CCCCCCNC(=O)c1cnc(N(c2ccccc2)c2ccccc2Cl)nc1)NO [citarinostat]
In short: as §1

silmitasertib = compound: O=C(O)c1ccc2c(c1)nc(Nc1cccc(Cl)c1)c1ccncc12 [silmitasertib]
In short: as §1

[5] = compound: O=C1NC(=O)C(c2cnc3ccccn23)=C1c1cn2c3c(cc(F)cc13)CN(C(=O)N1CCCCC1)CC2
In short: as §1

[6] = compound: c1cc(OCCN2CCCCC2)cc(-c2n[nH]c3ccc(-c4nnc[nH]4)cc23)c1
In short: as §1

Measured: log2 fold change

TAF10 (UniProt Q12962)
inactive: [1] 0.022 | [2] -0.005 | [3] 0.005 | [4] 0.101 | entinostat 0.094 | vorinostat -0.053 | citarinostat 0.038 | silmitasertib 0.003 | [5] 0.1 | [6] 0.004

TANGO2 isoform 4 (UniProt Q6ICL3)
inactive: [1] -0.06 | [2] -0.1 | [3] -0.115 | [4] -0.022 | entinostat -0.02 | vorinostat 0.022 | citarinostat 0.067 | silmitasertib -0.027 | [5] -0.071 | [6] -0.004

SUDS3 (UniProt Q9H7L9)
inactive: [1] -0.113 | [2] -0.207 | [3] -0.192 | [4] -0.039 | entinostat -0.068 | citarinostat -0.009 | silmitasertib 0.074 | [5] -0.063 | [6] 0.209

SUPT6H (UniProt Q7KZ85)
inactive: [1] -0.176 | [2] -0.066 | [3] -0.127 | [4] -0.24 | entinostat 0.129 | vorinostat 0.122 | citarinostat -0.169 | silmitasertib -0.07 | [5] -0.189 | [6] -0.081

SYNJ2 (UniProt O15056)
inactive: [1] -0.274 | [2] -0.094 | [3] -0.131 | [4] -0.169 | entinostat 0.065 | vorinostat 0.06 | silmitasertib 0.012 | [5] 0.044

TAOK3 (UniProt Q9H2K8)
inactive: [1] -0.013 | [2] -0.149 | [3] -0.048 | [4] 0 | entinostat 0.034 | vorinostat 0.036 | citarinostat 0.106 | silmitasertib 0 | [5] 0.021 | [6] -0.203

TACC2 (UniProt O95359)
inactive: [1] -0.013 | [2] -0.027 | [3] -0.052 | [4] -0.187 | entinostat 0.035 | vorinostat -0.033 | citarinostat 0.003 | silmitasertib 0.116 | [6] -0.073

STXBP3 (UniProt O00186)
inactive: [1] -0.061 | [2] -0.045 | [3] -0.101 | [4] -0.077 | entinostat 0.058 | vorinostat 0.106 | citarinostat 0.024 | silmitasertib 0.004 | [5] 0.082 | [6] -0.062

SYF2 (UniProt O95926)
inactive: [1] 0.099 | [2] 0.089 | [3] -0.032 | [4] 0.101 | entinostat -0.022 | vorinostat -0.11 | citarinostat -0.069 | silmitasertib 0.016 | [5] 0.14 | [6] -0.153

SURF6 (UniProt O75683)
inactive: [1] 0.073 | [2] 0.01 | [3] 0.154 | [4] 0.12 | entinostat -0.106 | vorinostat -0.009 | citarinostat -0.102 | silmitasertib 0.147 | [5] 0.43 | [6] -0.035

SUMF1 isoform 3 (UniProt Q8NBK3)
inactive: [1] 0.214 | [2] 0.063 | [3] -0.062 | [4] -0.098 | entinostat 0.057 | vorinostat -0.072 | silmitasertib 0.042 | [5] -0.027

TAF2 (UniProt Q6P1X5)
inactive: [1] -0.005 | [2] -0.029 | [3] 0.131 | [4] 0.03 | entinostat -0.035 | vorinostat -0.055 | citarinostat 0 | silmitasertib 0.071 | [5] 0.105 | [6] -0.114

SUMO2 (UniProt P61956)
inactive: [1] 0.063 | [2] 0.058 | [3] 0.146 | [4] 0.109 | entinostat -0.056 | vorinostat -0.095 | citarinostat -0.111 | silmitasertib -0.005 | [6] -0.073

TARSL2 (UniProt A2RTX5)
inactive: [1] -0.023 | [2] -0.042 | [3] -0.167 | [4] -0.064 | entinostat -0.011 | vorinostat 0.032 | citarinostat 0.008 | silmitasertib -0.026 | [5] -0.004 | [6] -0.005

TAMM41 isoform 3 (UniProt Q96BW9)
inactive: [1] 0.001 | [2] -0.052 | [3] -0.148 | [4] -0.059 | entinostat 0.022 | vorinostat 0.023 | citarinostat 0.013 | silmitasertib -0.004 | [5] -0.125 | [6] -0.043
